{"source": "patent EP4671261A1", "about": "(Daebong LS Co., Ltd., priority 2023, dated 2024)", "test": "peptide synthesis", "conditions": "whole synthesis, 220 nm", "note": "Some peptides are written in HELM: one residue between dots, names in brackets for other building blocks, links after the first $.", "data": [{"substance": "PEPTIDE1{Y.G.S.D}$$$$V2.0", "values": [{"measurement": "purity (crude or final not stated)", "result": 95, "unit": "%"}]}]}
